From publication PMC11425265 come the findings set out here.

The chains behind the UniProt entries cited, without tags or fusion partners.
UniProt P62316: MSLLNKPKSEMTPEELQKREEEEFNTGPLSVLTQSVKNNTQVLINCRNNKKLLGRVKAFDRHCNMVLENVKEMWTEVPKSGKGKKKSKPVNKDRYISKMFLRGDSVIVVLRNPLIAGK

These are yes or no findings as the source states them, for the method shown. In cells and extracts the contact can be indirect. These calls come from enrichment with a bait or labelling near it, and not all partners need be listed.

The experiment concerns the target SNRPD2 (PD2) (human) (UniProt P62316). Briefly: affinity purification with mass spectrometry; IP-MS of PD2-interacting proteins, compared with the proteins pulled down by DDX39A pre-mRNA probes; cells and antibody not told in the text shown.

B1: HNRNPL (PL) (protein, UniProt P14866 1-589)
chain: MSRRLLPRAEKRRRRLEQRQQPDEQRRRSGAMVKMAAAGGGGGGGRYYGGGSEGGRAPKRLKTDNAGDQHGGGGGGGGGAGAAGGGGGGENYDDPHKTPASPVVHIRGLIDGVVEADLVEALQEFGPISYVVVMPKKRQALVEFEDVLGACNAVNYAADNQIYIAGHPAFVNYSTSQKISRPGDSDDSRSVNSVLLFTILNPIYSITTDVLYTICNPCGPVQRIVIFRKNGVQAMVEFDSVQSAQRAKASLNGADIYSGCCTLKIEYAKPTRLNVFKNDQDTWDYTNPNLSGQGDPGSNPNKRQRQPPLLGDHPAEYGGPHGGYHSHYHDEGYGPPPPHYEGRRMGPPVGGHRRGPSRYGPQYGHPPPPPPPPEYGPHADSPVLMVYGLDQSKMNCDRVFNVFCLYGNVEKVKFMKSKPGAAMVEMADGYAVDRAITHLNNNFMFGQKLNVCVSKQPAIMPGQSYGLEDGSCSYKDFSESRNNRFSTPEQAAKNRIQHPSNVLHFFNAPLEVTEENFFEICDELGVKRPSSVKVFSGKSERSSSGLLEWESKSDALETLGFLNHYQMKNPNGPYPYTLKLCFSTAQHAS
In the case of B1, the binding result is reported as “binds”.
